# According to the supplement of paper PMC3334620:
# The full ranking holds about 33,000 sequences; the median of “E-score (-0.5 to 0.5)” is about -8e-05, and the highest 2% start at about 0.23. Some of the results follow.
# Target: T1, Nrg2 (UniProt P38082)
# T1 sequence: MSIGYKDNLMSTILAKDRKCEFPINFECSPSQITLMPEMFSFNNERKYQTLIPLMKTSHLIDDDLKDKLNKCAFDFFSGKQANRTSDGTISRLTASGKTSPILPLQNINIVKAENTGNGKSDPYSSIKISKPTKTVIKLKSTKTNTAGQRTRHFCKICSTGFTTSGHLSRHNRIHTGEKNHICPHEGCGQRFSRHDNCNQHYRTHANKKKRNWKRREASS
# Experiment: PBM E-score (8-mer binding enrichment) (E-score (-0.5 to 0.5)); higher = stronger / more preferred TF binding
# Settings: protein concentration: 100 nM; construct: GST-full length
# Procedure, shortened: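 Yeast transcription factors, full-length or as DNA-binding domains, were expressed with a GST tag using PURExpress in vitro transcription/translation. At about 100-200 nM they were applied to universal all-10-mer Agilent arrays, double-stranded by primer extension on fresh or once-stripped slides. Fluorescent anti-GST detected bound protein, and masliner normalised the scans. E-scores for ungapped eight-base words, pooled with reverse complements, came from the Universal PBM Analysis Suite.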
row,Sequence,PBM E-score
1,AACCCGAG,-0.0529
2,GGTCCCTA,0.227
3,CGATATAC,0.113
4,CTGTCGTA,0.0568
5,GCCCTCAA,-0.252
6,ACCGGAGA,0.109
7,CTCTATTC,0.0238
8,GTTTTACA,0.036
9,GTAATGAC,-0.0415
10,ATCCACGC,-0.113
11,CACTGCGA,-0.0817
12,ACGTGCTA,-0.181
13,CTTCTCAA,-0.0328
14,GCGTACCC,0.00443
15,ACCTTTAT,-0.159
16,CTGGGTTC,0.172
17,AGGAGACA,-0.0211
18,GTAAGAGA,-0.079
19,CAATTCGC,0.277
20,GGCGGAGA,0.0596
21,GCATCGGC,-0.07
22,GTAGGTTA,0.0569
23,GTCTAAGA,0.0993
24,CGCCAACA,-0.0246
25,CTTCTACA,-0.0433

# 5 entries picked at random from those above, as already listed:
row,Sequence,PBM E-score
9,GTAATGAC,-0.0415
15,ACCTTTAT,-0.159
1,AACCCGAG,-0.0529
22,GTAGGTTA,0.0569
25,CTTCTACA,-0.0433

# (next part)

row,Sequence,PBM E-score
1,GCAGGGAA,0.238
2,CTTGTAAA,0.0911
3,AGCTTCCT,0.0472
4,AATCGGAA,0.242
5,AAAACCGT,-0.108
6,GGGGAGGA,-0.186
7,ATGGTTGG,-0.17
8,AGTAATGG,0.074
9,ATTTCGTG,0.223
10,AGGACCCG,0.0935
11,GAACCTTA,0.0892
12,AACGCAGT,-0.131
13,TCGTCCCA,0.0993
14,ATAGCCGA,0.143
15,CTAACAGC,-0.0587
16,AATATATA,0.0908
17,CAGCCCTA,0.127
18,ATTTGTAA,0.118
19,CATAGACC,-0.188
20,ATGCTGTA,-0.0825
21,GAGTATCC,-0.0384
22,GGGTTCAC,0.142
23,GGGATCTA,0.186
24,ATGATCAG,0.027
25,CAGTAGTA,0.0461

row,Sequence,PBM E-score
1,TCGCATCA,0.0779
2,GAGTATCA,0.00367
3,ACCACCAA,-0.0801
4,ATGTGAAA,-0.0675
5,ACAATTCT,0.108
6,GCTGTAGA,-0.122
7,AAGTGCTC,-0.139
8,CTCAGTGA,-0.213
9,CTAGAACC,-0.0469
10,ATCCGCAT,0.116
11,CGATCTCA,0.0542
12,AAACTTGT,0.00567
13,GGGCCGAA,-0.0671
14,CGGTTAGA,-0.175
15,CCCCGAGG,-0.0349
16,ACGTTCTG,0.0935
17,ACATTGCA,0.136
18,AACGCCCG,0.00625
19,CATGAAGC,-0.0144
20,GATGGTCC,-0.0427
21,ACGCAATA,0.228
22,GACGTCCA,0.0581
23,TATGTTGA,-0.0403
24,CCAGGACA,0.109
25,ACACTTAC,0.0076

# Copied from the list:
# PBM E-score with CTGTCGTA reads 0.0568
# PBM E-score with ACGTTCTG reads 0.0935
# PBM E-score with GTAATGAC reads -0.0415

# Continued.

row,Sequence,PBM E-score
1,AGTCAAGG,-0.174
2,GCTCGAAC,0.191
3,GCGAGGAA,0.0829
4,GGCTCCAC,-0.271
5,AACAGAGG,0.0203
6,ACTCACAC,0.0176
7,GTCCAAAC,-0.063
8,AAATAGAC,0.165
9,AGAGGTTG,-0.134
10,GTACCATA,-0.0397
11,CGTACGTC,-0.285
12,AGTTCGCG,0.106
13,ATAAAGCG,-0.0921
14,GATGAGAA,0.0492
15,CCGTCCGC,-0.23
16,CAGGGTGC,0.19
17,AAGCAACA,0.0458
18,AATATATG,0.225
19,ACACGGGC,-0.092
20,CGTCAGCA,0.0515
21,AGTACTCC,-0.0866
22,GATCTAAC,-0.0514
23,AACAGTCT,-0.195
24,AATTTTCT,0.0132
25,ATTTGAAC,0.0934

row,Sequence,PBM E-score
1,CCCGATTC,-0.0963
2,AACAAAGT,0.26
3,ATAAATCC,0.142
4,ACACTGAC,0.0969
5,CTTCGTCA,0.0727
6,CGATACAC,-0.0593
7,TACGCCAA,-0.211
8,AAAGGGCG,0.0812
9,CCCGCCAC,0.269
10,CGCCGAGA,0.0142
11,CGTGGCTA,-0.162
12,CATCAGCA,0.0503
13,ACCGTTCG,0.0627
14,CATTGGGA,-0.111
15,AATCAATA,0.179
16,GATCCATC,0.0646
17,CGCTCTGA,-0.0124
18,ACGAAGAC,-0.135
19,CCCCGGTC,-0.118
20,AAGTGTTG,0.109
21,AACCAATA,0.13
22,CCCCTCCG,-0.231
23,TACAGTCA,0.143
24,AACGAACC,0.155
25,CCAGTTGC,-0.17

row,Sequence,PBM E-score
1,TGCCCCCA,-0.311
2,TGAGAGCA,-0.0315
3,ACAGCGAA,0.0147
4,ATCATTAA,0.171
5,AAATCTGT,0.0187
6,CAGTGTTC,0.172
7,AGCCCAAG,-0.0906
8,CCACTGCG,0.0191
9,ATCTCGTC,0.162
10,AAAATAGT,0.0248
11,ACAAGCGA,0.149
12,GAGCGGCC,-0.0758
13,CCTGATAC,0.229
14,CAAGAGGC,-0.0374
15,ACTTAACG,-0.143
16,CACGCTGC,-0.215
17,CCTTCGAC,-0.206
18,GATCTCTA,-0.182
19,AGGTCCAC,-0.199
20,AAAGCGGT,-0.206
21,ATGTTCGC,-0.113
22,ACCTGTCA,0.106
23,CACCTATG,0.0545
24,CATGTTCC,-0.128
25,ATAGATGG,-0.093

row,Sequence,PBM E-score
1,CTGCTCTA,0.0167
2,GCGTGCTA,-0.163
3,CGGCACGA,0.0169
4,ACACCTAG,-0.108
5,CGCCTTTA,-0.0551
6,CAATTATA,0.0143
7,CCAGTCTA,-0.151
8,GCTTGTGA,-0.114
9,CGGTAGTA,-0.0986
10,ACGGGTGC,0.0229
11,GCTGCCTA,0.0864
12,AAATCTAC,0.0697
13,CCCTGTCA,0.0427
14,AATGCAAT,-0.287
15,CGAACCAG,0.132
16,GGTTGTTA,0.126
17,TCTACCAA,-0.0391
18,ACCCTGGA,0.279
19,AGGGCAGA,-0.0343
20,ATCGAGCG,0.229
21,ACAGACCT,0.00105
22,GATCTACA,0.0846
